No constants are given. Whether binding was seen depends on the method and setting. In cells and extracts the contact can be indirect. Some results given as binding are weak or reduced against the parent protein; the word gives no strength. Where a sequence is shown, tags or fusion partners need not be part of it.
Key:
Assay in all cases: co-IP; 35S::VAL1-FLAG and 35S::SNLs-HA co-expressed in N. benthamiana leaves; extract in 50 mM Tris-HCl pH 7.5, 150 mM NaCl, 0.1% Triton X-100; anti-HA magnetic beads overnight at 4 °C; blot with anti-FLAG
[1] = biological target: T1, SNL1-HA (35S::SNL1-HA), full length (Arabidopsis thaliana) (UniProt Q9SRH9)
T1 sequence: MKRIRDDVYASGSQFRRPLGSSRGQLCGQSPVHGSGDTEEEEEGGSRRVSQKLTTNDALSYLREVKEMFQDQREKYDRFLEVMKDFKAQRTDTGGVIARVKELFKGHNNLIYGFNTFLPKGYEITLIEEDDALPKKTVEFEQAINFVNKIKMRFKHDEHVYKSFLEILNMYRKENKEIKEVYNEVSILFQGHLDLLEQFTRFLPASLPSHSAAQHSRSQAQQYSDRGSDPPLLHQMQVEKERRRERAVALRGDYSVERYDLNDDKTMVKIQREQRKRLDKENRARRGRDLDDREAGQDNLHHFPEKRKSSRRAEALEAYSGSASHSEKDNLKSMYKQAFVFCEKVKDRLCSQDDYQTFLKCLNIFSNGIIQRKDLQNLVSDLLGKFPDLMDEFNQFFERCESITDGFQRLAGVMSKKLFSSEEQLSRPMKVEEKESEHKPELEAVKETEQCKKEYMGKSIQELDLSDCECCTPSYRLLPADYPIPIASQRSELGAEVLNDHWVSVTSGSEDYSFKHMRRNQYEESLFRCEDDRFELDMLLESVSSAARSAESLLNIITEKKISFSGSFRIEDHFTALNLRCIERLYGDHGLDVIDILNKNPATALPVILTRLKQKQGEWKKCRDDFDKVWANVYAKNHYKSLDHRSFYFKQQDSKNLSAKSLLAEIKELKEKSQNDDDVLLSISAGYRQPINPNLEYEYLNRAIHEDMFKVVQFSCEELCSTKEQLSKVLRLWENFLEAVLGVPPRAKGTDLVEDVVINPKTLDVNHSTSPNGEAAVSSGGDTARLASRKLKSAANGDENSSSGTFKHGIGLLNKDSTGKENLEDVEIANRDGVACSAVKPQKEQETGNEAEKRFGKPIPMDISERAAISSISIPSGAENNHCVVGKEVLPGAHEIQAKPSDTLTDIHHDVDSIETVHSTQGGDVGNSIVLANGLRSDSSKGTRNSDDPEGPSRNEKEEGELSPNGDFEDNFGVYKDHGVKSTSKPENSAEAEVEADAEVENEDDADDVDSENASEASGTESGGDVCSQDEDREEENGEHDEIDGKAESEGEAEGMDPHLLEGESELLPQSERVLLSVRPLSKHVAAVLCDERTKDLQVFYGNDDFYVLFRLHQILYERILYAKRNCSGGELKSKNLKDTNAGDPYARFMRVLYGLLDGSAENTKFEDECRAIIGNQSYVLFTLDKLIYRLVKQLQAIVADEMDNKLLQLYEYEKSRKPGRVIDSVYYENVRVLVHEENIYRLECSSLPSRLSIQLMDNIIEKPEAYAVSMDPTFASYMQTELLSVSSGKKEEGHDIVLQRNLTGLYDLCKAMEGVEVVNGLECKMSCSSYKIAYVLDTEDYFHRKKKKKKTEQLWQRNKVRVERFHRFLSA

Protein sequences, listed by entry. Tags and fused reporters are not part of them.
UniProt O48686: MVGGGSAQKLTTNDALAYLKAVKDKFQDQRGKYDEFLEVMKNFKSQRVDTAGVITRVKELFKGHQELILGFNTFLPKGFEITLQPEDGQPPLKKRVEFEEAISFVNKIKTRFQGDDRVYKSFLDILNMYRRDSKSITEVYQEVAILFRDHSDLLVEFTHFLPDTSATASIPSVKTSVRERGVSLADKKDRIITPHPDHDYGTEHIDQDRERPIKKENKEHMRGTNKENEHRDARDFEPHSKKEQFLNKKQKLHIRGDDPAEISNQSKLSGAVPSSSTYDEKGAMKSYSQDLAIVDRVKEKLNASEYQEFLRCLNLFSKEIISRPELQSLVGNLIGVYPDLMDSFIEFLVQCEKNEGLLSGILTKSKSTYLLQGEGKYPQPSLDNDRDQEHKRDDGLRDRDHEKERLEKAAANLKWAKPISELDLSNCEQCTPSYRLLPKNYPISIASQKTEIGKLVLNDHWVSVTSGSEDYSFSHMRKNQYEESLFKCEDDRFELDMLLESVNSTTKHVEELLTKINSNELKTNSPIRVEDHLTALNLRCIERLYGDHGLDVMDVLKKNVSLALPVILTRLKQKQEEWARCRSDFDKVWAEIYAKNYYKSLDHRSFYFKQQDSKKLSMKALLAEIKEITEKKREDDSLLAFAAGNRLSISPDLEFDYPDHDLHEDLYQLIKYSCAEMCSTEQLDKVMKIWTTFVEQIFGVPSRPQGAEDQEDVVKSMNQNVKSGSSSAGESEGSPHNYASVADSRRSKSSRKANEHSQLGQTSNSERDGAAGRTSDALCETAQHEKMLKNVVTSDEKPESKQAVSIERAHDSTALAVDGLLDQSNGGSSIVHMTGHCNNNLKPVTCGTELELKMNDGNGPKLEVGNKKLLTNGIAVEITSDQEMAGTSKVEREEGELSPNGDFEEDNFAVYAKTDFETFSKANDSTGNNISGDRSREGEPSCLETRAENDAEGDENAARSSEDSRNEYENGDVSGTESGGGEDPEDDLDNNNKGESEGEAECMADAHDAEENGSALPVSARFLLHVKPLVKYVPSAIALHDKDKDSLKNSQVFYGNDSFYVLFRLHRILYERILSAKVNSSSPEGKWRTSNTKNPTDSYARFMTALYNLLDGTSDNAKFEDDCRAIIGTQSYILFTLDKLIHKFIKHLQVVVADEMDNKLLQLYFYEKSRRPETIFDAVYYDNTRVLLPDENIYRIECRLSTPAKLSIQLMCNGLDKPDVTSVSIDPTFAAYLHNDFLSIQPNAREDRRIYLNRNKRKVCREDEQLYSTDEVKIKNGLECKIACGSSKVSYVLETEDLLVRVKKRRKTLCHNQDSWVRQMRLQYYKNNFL
UniProt O04539: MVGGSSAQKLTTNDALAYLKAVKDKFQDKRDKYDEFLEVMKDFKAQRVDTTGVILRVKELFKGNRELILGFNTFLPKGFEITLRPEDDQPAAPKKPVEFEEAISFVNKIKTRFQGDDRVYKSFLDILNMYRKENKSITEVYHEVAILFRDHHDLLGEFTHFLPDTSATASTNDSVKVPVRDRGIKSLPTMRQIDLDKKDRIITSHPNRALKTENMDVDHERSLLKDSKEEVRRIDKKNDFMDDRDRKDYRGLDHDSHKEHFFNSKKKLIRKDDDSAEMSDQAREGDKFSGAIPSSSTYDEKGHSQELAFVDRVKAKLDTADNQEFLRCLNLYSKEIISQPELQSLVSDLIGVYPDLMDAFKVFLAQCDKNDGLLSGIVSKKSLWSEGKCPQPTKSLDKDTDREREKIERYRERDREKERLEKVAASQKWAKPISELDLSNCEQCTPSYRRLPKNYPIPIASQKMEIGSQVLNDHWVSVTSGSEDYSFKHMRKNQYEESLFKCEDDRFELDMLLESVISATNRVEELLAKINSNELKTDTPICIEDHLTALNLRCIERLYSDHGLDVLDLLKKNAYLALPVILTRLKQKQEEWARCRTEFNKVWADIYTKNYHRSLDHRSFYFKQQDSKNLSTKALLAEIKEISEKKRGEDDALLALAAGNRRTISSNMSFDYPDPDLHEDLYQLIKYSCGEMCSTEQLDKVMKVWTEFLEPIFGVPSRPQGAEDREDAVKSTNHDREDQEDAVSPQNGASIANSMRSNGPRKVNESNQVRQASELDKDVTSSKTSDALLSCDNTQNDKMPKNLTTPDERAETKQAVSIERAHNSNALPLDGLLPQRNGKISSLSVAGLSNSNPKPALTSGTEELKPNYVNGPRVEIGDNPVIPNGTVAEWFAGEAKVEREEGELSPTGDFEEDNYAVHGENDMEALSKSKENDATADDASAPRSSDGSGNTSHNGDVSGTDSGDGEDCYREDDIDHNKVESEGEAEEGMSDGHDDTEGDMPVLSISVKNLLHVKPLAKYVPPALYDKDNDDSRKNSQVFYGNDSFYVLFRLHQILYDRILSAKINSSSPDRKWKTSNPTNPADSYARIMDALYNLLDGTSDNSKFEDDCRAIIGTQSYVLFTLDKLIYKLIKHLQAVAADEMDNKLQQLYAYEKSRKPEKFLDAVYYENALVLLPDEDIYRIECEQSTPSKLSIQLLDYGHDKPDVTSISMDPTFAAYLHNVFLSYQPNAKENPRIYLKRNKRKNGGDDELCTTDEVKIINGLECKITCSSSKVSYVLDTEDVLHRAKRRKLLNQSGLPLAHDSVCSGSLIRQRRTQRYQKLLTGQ
UniProt Q9XIE1: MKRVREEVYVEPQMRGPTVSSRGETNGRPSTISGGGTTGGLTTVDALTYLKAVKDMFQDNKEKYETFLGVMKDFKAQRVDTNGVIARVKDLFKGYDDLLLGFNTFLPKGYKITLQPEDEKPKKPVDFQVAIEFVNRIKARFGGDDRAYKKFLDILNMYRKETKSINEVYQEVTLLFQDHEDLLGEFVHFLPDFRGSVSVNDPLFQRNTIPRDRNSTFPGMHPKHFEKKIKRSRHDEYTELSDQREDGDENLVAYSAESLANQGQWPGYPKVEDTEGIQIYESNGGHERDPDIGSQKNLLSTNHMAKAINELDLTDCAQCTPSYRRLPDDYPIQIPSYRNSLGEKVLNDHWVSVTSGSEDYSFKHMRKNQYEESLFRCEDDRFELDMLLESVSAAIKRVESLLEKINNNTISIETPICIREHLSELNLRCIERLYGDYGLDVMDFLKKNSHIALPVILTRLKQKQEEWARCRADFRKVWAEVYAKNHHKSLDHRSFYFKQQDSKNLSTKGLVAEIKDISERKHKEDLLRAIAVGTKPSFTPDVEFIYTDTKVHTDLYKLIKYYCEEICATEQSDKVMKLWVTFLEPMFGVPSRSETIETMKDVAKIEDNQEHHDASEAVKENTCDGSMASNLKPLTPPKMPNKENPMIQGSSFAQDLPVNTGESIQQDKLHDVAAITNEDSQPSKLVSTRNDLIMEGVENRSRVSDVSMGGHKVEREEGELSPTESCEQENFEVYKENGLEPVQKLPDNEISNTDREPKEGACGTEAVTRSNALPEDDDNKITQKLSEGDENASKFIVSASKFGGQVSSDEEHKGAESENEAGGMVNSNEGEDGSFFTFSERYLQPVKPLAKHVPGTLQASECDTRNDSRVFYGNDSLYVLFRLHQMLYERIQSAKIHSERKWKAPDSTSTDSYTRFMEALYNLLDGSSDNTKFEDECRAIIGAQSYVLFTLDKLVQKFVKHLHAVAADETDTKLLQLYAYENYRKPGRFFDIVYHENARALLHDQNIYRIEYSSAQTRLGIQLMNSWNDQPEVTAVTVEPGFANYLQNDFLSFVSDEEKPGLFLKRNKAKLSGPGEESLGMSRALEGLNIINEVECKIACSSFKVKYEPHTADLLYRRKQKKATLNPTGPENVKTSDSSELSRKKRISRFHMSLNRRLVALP
UniProt Q9XIK6: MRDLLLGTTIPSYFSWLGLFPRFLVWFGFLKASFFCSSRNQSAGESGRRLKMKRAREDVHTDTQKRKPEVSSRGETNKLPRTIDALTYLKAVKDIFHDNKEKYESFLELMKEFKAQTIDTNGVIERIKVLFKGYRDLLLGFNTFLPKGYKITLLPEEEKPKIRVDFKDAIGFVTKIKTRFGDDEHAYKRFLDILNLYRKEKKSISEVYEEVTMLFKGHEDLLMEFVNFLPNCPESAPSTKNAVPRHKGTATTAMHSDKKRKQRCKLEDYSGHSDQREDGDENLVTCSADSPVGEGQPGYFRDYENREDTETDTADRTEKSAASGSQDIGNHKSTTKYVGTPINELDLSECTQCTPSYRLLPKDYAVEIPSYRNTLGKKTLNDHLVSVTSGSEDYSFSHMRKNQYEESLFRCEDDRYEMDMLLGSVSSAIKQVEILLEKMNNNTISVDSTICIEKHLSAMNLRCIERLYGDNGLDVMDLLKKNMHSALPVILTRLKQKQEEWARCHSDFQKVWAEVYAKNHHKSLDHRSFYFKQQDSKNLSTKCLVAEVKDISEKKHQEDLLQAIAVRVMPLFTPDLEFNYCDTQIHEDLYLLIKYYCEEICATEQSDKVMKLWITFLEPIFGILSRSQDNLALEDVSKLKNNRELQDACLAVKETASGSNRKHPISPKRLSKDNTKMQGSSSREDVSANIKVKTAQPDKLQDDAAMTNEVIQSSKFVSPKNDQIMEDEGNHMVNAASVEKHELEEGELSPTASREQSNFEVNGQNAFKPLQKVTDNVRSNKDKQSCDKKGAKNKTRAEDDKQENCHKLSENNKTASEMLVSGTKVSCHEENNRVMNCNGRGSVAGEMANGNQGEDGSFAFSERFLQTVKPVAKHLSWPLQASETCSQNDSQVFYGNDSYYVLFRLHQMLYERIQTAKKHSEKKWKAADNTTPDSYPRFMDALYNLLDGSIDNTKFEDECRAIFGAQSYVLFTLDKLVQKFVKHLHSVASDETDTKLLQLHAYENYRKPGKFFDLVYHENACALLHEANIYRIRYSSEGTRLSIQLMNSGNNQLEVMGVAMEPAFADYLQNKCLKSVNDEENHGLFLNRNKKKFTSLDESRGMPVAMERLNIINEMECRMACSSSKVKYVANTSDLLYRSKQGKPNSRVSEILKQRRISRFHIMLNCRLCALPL

[2] = biological target: T2, SNL2-HA (35S::SNL2-HA), full length (Arabidopsis thaliana) (UniProt Q9LFQ3)
T2 sequence: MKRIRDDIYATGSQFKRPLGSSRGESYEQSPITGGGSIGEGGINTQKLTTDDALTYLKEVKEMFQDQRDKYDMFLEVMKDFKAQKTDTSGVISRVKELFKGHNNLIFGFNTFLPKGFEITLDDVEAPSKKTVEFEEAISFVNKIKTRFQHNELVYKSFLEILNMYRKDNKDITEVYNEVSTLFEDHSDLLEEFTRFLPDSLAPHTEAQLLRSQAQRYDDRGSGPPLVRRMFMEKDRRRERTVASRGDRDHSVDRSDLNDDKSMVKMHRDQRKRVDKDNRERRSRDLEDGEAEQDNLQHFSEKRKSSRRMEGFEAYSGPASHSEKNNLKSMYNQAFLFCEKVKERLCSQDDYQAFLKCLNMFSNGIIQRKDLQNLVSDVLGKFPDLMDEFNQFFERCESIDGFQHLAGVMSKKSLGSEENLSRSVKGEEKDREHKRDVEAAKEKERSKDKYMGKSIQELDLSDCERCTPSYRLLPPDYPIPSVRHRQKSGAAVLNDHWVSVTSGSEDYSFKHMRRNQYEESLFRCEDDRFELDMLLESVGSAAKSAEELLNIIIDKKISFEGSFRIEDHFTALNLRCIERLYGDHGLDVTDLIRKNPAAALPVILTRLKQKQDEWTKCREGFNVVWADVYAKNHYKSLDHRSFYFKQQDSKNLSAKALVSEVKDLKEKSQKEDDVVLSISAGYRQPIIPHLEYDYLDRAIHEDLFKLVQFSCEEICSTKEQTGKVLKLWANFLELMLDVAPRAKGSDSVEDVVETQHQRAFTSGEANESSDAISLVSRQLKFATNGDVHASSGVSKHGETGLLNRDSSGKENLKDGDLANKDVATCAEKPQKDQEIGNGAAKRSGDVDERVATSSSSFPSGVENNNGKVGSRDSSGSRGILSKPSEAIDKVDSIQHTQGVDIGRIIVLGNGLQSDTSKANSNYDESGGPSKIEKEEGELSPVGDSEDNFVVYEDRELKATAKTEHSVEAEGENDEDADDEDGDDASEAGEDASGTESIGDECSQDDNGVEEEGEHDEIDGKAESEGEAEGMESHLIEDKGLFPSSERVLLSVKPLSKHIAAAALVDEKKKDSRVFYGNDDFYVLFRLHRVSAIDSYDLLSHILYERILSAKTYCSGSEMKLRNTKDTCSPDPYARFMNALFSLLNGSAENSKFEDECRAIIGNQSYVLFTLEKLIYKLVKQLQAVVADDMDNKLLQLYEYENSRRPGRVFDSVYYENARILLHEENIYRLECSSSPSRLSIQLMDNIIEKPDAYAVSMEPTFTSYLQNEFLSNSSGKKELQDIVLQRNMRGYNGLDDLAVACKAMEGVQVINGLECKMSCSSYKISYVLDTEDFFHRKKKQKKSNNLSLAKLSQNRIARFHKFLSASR

[3] = biological target: SNL3-HA (35S::SNL3-HA), full length (Arabidopsis thaliana) (UniProt O48686)
[4] = biological target: SNL4-HA (35S::SNL4-HA), full length (Arabidopsis thaliana) (UniProt O04539)
[5] = biological target: SNL5-HA (35S::SNL5-HA), full length (Arabidopsis thaliana) (UniProt Q9XIE1)
[6] = biological target: SNL6-HA (35S::SNL6-HA), full length (Arabidopsis thaliana) (UniProt Q9XIK6)

Measured: binding

B1: VAL1-FLAG (35S::VAL1-FLAG), full length (protein, UniProt Q8W4L5 1-790)
chain: MFEVKMGSKMCMNASCGTTSTVEWKKGWPLRSGLLADLCYRCGSAYESSLFCEQFHKDQSGWRECYLCSKRLHCGCIASKVTIELMDYGGVGCSTCACCHQLNLNTRGENPGVFSRLPMKTLADRQHVNGESGGRNEGDLFSQPLVMGGDKREEFMPHRGFGKLMSPESTTTGHRLDAAGEMHESSPLQPSLNMGLAVNPFSPSFATEAVEGMKHISPSQSNMVHCSASNILQKPSRPAISTPPVASKSAQARIGRPPVEGRGRGHLLPRYWPKYTDKEVQQISGNLNLNIVPLFEKTLSASDAGRIGRLVLPKACAEAYFPPISQSEGIPLKIQDVRGREWTFQFRYWPNNNSRMYVLEGVTPCIQSMMLQAGDTVTFSRVDPGGKLIMGSRKAANAGDMQGCGLTNGTSTEDTSSSGVTENPPSINGSSCISLIPKELNGMPENLNSETNGGRIGDDPTRVKEKKRTRTIGAKNKRLLLHSEESMELRLTWEEAQDLLRPSPSVKPTIVVIEEQEIEEYDEPPVFGKRTIVTTKPSGEQERWATCDDCSKWRRLPVDALLSFKWTCIDNVWDVSRCSCSAPEESLKELENVLKVGREHKKRRTGESQAAKSQQEPCGLDALASAAVLGDTIGEPEVATTTRHPRHRAGCSCIVCIQPPSGKGRHKPTCGCTVCSTVKRRFKTLMMRRKKKQLERDVTAAEDKKKKDMELAESDKSKEEKEVNTARIDLNSDPYNKEDVEAVAVEKEESRKRAIGQCSGVVAQDASDVLGVTELEGEGKNVREEPRVSS
binds: all assays above
